Measurements reported in PubChem BioAssay AID1671195 (Yale University, 2021).
In all, the deposit lists about 22,000 reagents; below is an unselected part. In the full data, about 1,510 (6.9%) were called active. 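Active includes knockdowns raising or lowering LDL uptake; positive z-scores mean more uptake, negative mean less.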 Reagents against one gene are numbered here. No sequences are given here.

Purpose: 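Regulators of LDL receptor activity judged by labelled LDL uptake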 (primary screen)
System: human Huh7 hepatoma cells
Reagent: siRNA pool against human genes, 18 nM
Duration: about 2 to 2.5 days of knockdown, then 8 h LDL uptake
Treatment: DiI-labelled LDL at 30 µg/ml for 8 h, in lipoprotein-deficient serum medium
Measurement: 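Per-cell DiI-LDL intensity by automated imaging; well means scaled to the plate median and given as a robust z-score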
Scale: robust z-score: higher = more LDL uptake after knockdown
Rule for the call: 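a gene counts as active if at least two replicate z-scores exceed ±2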

target gene | pool no. | robust z-score, replicate 1 | robust z-score, replicate 2 | robust z-score, replicate 3 | call
CELF2-AS1 | 1 | 2.21 | 3.4 | 2.79 | active
SLC16A13 | 1 | 0.743 | 1.72 | 1.23 | inactive
AKR1E2 | 1 | -0.133 | 1.09 | 0.217 | inactive
IGFN1 | 1 | 0.17 | 0.129 | 0.0467 | inactive
RPS15P3 | 1 | 3.18 | 2.25 | 2 | active
PLEKHG7 | 1 | 0.672 | 0.612 | 1.23 | inactive
PLEKHG7 | 2 | -0.639 | -0.608 | -0.287 | inactive
GARS1 | 1 | 0.585 | 0.834 | 0.693 | inactive
NAV2-AS4 | 1 | -0.453 | -0.0828 | -0.281 | inactive
GAL | 1 | -0.955 | -0.707 | -1.93 | inactive
LOC388365 (retired record) | 1 | 1.07 | 1.23 | 1.32 | inactive
LOC440687 (retired record) | 1 | -0.188 | -0.316 | -0.395 | inactive
CUZD1 | 1 | 1.29 | -0.463 | 1.16 | inactive
AP3M2 | 1 | -1.64 | 1.92 | -0.0952 | inactive
LOC388416 (retired record) | 1 | -0.488 | -0.0891 | 0.141 | inactive
BET1 | 1 | -0.387 | -0.415 | -0.273 | inactive
CCSER2 | 1 | -1.4 | 0.777 | -0.0344 | inactive
WDR12 | 1 | 0.678 | -1.07 | 0.705 | inactive
SGCA | 1 | -0.409 | 0.824 | -0.995 | inactive
NR2F1-AS1 | 1 | -0.698 | -1.06 | -1 | inactive
INO80 | 1 | 0.455 | 0.732 | 0.565 | inactive
ATG2B | 1 | 0.804 | -0.00502 | 1.23 | inactive
MVD | 1 | -1.66 | -0.871 | -1.54 | inactive
LOC221344 (retired record) | 1 | -0.0786 | -0.376 | -0.691 | inactive
UGT2B11 | 1 | 0.9 | 1.3 | 1.68 | inactive
MGC27382 | 1 | -0.732 | -0.652 | -1.57 | inactive
KRTAP3-2 | 1 | 0.877 | 1.69 | 1.61 | inactive
VLDLR | 1 | -0.478 | 0.113 | -0.848 | inactive
CYSRT1 | 1 | -0.109 | -0.454 | -0.156 | inactive
WDR19 | 1 | 0.577 | 0.438 | 0.581 | inactive
PIKFYVE | 1 | -0.0504 | 0.0949 | -0.158 | inactive
DENR | 1 | 0.534 | -1.02 | -0.577 | inactive
ZBTB47 | 1 | 0.0651 | 1.13 | 1.43 | inactive
OR13C5 | 1 | -0.81 | -0.851 | 0.364 | inactive
NSG2 | 1 | -1.95 | -1.99 | -1.12 | inactive
NSA2 | 1 | -1.71 | 0.318 | -0.00469 | inactive
PMS2 | 1 | 1.54 | 2.12 | 2.53 | active
ZNF678 | 1 | -1.32 | -1.1 | -0.502 | inactive
XKR8 | 1 | -0.345 | 0.973 | -0.161 | inactive
SNN | 1 | 1.09 | -0.576 | 0.353 | inactive
FBLIM1 | 1 | -1.34 | -0.551 | -1.79 | inactive
QSOX2 | 1 | 0.243 | -0.921 | 0.105 | inactive
PPP1R36 | 1 | -0.11 | -0.0863 | 0.56 | inactive
KCNT1 | 1 | 1.29 | 0.488 | 0.995 | inactive
PBOV1 | 1 | 0.537 | 0.828 | 0.249 | inactive
GPHN | 1 | 0.512 | -0.745 | 1.1 | inactive
PRR3 | 1 | -0.642 | -0.391 | -0.53 | inactive
PRKCB | 1 | -0.578 | 0.717 | -0.573 | inactive
ZDHHC17 | 1 | -0.581 | 0.966 | -0.62 | inactive
MLXIP | 1 | -0.183 | -1.35 | 0.581 | inactive
URI1 | 1 | -0.328 | -0.766 | 0.136 | inactive
STT3A | 1 | -0.179 | 1.65 | 1.35 | inactive
GC | 1 | -0.134 | -0.209 | 0.0738 | inactive
TIMP3 | 1 | -1.01 | -0.528 | -0.835 | inactive
DDX41 | 1 | 1.02 | 1.69 | 1.64 | inactive
ABCA16P | 1 | -0.711 | -0.615 | -0.555 | inactive
ZFYVE9 | 1 | 0.25 | 0.658 | 0.942 | inactive
FBXW12 | 1 | -0.404 | -0.0324 | -0.0637 | inactive
DCLRE1A | 1 | -0.775 | -0.272 | 3.12 | inactive
GOLGA2P11 | 1 | 2.66 | 3.43 | 2.89 | active
ADAMTS2 | 1 | -1.58 | -1.32 | -1.67 | inactive
TAS2R31 | 1 | 0.871 | 1.05 | 1.09 | inactive
ASGR2 | 1 | 0.0361 | -0.301 | -0.0282 | inactive
DHRS4L2 | 1 | -0.328 | 0.518 | -0.352 | inactive
CARS1 | 1 | 0.571 | -0.139 | -0.299 | inactive
PPP1R15B | 1 | -0.673 | 0.0871 | -0.682 | inactive
FRMD1 | 1 | -0.686 | -1.56 | -0.955 | inactive
SLA2 | 1 | -0.175 | -0.0392 | -0.191 | inactive

Reformatted: 4 of the entries above.
target gene	pool no.	robust z-score, replicate 1	robust z-score, replicate 2	robust z-score, replicate 3	call
UGT2B11	1	0.9	1.3	1.68	inactive
MGC27382	1	-0.732	-0.652	-1.57	inactive
KRTAP3-2	1	0.877	1.69	1.61	inactive
VLDLR	1	-0.478	0.113	-0.848	inactive
